At least one compound was matched to its structure with a doubt left.
System: mushroom tyrosinase
Assay: Tyrosinase inhibition screening (L-DOPA oxidation, absorbance at 470 nm)
Type: biochemical
Conditions: Concentration 0.1%; single compounds
From the text: The tyrosinase inhibition may be used to determine the tyrosinase inhibition ability of the compounds. The test comprises adding the test compound to a solution of L-dihydroxyphenylalanine (L-(DOPA)) and mushroom tyrosinase. L-(DOPA) is converted to […] by the mushroom tyrosinase, causing a brown colour to form. Inhibition of this reaction prevents the brown colour formation. The lighter the colour at the end of the reaction, the stronger is the inhibitory effect of the active. Absorbance data may be collected using a plate reacted set up to have a kinetic read every 1 minute for 30 minutes, where absorbance is read at 470 nm.

SMILES: CC(c1ccccc1)c1ccc(O)cc1O (stereo not shown) [A, Phenylethyl resorcinol]
- Tyrosinase Inhibition (%): 82.65%

Source: patent EP4516281A1, “COSMETIC COMPOSITIONS” (The Boots Company plc, priority 2023, dated 2025)
